# Measured values published in the supplement of paper PMC12067093, “Discovery and optimisation of a covalent ligand for TRIM25 and its application to targeted protein ubiquitination” (Chemical Science, 2025).
# Amino acid sequences for entries named in this document (tags omitted). A change or cut given only in a name is not applied to a line headed by its entry.
# UniProt Q14166: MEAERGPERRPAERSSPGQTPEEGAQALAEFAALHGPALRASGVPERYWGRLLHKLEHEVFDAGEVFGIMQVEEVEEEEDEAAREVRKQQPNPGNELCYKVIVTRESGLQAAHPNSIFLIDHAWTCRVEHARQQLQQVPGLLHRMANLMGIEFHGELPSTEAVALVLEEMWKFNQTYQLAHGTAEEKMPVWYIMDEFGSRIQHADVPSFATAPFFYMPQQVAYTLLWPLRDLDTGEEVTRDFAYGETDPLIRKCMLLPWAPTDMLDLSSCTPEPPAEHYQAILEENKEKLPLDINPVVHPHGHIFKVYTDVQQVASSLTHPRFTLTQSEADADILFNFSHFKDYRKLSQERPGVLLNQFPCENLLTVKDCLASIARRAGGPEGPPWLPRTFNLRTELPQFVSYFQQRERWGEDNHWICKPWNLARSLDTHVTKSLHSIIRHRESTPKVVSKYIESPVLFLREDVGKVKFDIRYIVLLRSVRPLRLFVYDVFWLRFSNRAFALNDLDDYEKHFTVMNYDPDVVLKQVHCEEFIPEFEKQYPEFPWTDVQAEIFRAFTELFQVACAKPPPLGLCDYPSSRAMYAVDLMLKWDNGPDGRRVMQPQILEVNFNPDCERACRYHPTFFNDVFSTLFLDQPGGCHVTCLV
# UniProt Q9Y4A5, whole entry, looked up: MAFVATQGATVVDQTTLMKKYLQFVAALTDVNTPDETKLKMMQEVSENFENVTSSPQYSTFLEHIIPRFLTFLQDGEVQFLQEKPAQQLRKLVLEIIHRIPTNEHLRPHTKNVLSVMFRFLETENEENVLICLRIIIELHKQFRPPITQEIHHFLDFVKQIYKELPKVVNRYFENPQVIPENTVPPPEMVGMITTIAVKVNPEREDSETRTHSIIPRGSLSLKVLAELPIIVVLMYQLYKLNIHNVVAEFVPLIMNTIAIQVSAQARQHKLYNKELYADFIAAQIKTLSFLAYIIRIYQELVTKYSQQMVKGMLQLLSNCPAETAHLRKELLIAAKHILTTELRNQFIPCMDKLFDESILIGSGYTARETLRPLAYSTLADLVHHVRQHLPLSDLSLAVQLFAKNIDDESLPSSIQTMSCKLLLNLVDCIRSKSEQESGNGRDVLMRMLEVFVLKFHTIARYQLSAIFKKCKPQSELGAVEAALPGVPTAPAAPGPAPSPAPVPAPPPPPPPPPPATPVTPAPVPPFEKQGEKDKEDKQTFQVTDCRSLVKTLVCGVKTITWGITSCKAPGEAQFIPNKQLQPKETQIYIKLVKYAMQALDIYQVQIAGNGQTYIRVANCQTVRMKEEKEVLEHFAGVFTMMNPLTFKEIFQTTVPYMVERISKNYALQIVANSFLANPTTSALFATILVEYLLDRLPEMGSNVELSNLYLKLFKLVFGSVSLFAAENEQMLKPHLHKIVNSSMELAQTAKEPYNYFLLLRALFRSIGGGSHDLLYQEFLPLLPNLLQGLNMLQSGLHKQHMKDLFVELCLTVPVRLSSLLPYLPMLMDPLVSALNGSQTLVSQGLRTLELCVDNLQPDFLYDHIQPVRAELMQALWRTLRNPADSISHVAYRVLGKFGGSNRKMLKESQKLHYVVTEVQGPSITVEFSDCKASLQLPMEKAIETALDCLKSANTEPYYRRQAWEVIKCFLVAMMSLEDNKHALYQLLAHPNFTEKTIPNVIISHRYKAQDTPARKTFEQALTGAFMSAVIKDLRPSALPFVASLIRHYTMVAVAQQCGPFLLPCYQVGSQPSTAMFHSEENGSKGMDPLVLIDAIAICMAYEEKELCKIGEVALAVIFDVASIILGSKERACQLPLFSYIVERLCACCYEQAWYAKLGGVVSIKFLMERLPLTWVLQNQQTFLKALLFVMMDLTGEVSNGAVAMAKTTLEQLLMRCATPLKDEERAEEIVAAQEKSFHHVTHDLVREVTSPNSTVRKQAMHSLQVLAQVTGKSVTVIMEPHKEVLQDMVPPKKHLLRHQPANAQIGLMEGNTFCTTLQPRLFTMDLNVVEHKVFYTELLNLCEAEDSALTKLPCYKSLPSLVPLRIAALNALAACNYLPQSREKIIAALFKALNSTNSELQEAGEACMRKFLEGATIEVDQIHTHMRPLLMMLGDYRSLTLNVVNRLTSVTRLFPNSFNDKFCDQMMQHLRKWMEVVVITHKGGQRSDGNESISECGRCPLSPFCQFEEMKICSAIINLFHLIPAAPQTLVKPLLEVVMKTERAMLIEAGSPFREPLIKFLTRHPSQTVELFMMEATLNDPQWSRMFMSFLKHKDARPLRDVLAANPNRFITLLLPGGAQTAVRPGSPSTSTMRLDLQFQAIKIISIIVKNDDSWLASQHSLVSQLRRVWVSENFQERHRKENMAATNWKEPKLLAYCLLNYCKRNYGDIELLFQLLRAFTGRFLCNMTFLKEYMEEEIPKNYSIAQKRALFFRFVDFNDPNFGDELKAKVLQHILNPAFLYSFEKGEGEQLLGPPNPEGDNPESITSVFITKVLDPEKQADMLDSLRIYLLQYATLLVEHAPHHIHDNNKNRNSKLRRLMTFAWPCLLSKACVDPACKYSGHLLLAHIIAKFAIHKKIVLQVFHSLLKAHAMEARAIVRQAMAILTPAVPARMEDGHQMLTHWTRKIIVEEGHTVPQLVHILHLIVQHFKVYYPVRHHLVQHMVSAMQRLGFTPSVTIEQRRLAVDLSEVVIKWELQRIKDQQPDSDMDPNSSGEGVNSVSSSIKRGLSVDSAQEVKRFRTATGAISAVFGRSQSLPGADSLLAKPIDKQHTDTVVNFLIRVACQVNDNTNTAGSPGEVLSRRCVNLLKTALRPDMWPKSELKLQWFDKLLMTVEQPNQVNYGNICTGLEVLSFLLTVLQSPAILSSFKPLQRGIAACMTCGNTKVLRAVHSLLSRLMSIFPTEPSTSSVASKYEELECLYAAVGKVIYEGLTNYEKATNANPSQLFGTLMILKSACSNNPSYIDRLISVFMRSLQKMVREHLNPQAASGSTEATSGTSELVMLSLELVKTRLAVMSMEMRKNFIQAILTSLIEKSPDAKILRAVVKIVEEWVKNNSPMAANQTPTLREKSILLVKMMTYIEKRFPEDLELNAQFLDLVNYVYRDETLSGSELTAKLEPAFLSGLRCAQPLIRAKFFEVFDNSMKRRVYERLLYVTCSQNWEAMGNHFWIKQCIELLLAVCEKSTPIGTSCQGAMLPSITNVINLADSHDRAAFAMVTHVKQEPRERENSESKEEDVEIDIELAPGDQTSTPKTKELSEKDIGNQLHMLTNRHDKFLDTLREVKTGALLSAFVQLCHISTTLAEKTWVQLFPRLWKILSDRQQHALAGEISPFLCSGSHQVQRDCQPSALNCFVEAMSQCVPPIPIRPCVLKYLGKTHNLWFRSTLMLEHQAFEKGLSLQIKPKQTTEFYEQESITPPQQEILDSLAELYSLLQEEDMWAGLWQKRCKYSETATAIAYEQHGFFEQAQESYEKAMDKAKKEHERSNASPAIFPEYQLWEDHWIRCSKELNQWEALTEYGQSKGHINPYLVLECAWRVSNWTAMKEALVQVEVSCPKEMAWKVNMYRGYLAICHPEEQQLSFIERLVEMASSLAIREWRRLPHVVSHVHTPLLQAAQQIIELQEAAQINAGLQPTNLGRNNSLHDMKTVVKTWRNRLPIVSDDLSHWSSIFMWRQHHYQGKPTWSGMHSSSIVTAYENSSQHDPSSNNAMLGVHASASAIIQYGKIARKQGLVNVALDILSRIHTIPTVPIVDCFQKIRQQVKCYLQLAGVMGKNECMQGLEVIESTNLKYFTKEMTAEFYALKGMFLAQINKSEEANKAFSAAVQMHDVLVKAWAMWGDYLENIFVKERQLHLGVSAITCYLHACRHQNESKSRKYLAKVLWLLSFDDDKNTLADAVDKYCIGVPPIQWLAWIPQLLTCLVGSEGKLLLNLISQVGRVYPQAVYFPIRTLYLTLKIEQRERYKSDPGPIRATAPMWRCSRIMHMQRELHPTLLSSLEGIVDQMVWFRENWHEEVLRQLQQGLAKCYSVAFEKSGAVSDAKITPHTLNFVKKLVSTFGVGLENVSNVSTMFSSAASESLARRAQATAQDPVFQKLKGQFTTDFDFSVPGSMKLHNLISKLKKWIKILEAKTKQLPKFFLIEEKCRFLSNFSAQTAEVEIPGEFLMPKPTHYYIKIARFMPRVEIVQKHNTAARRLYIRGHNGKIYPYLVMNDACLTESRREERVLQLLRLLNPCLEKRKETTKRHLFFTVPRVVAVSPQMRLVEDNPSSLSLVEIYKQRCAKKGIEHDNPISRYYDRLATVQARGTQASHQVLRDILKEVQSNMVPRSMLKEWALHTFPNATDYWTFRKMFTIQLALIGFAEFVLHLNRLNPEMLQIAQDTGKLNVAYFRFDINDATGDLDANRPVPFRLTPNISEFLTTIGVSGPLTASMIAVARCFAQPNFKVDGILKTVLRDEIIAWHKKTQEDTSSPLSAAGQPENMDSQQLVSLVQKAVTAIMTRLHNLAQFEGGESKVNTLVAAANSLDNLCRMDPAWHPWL
# UniProt Q9UNY4: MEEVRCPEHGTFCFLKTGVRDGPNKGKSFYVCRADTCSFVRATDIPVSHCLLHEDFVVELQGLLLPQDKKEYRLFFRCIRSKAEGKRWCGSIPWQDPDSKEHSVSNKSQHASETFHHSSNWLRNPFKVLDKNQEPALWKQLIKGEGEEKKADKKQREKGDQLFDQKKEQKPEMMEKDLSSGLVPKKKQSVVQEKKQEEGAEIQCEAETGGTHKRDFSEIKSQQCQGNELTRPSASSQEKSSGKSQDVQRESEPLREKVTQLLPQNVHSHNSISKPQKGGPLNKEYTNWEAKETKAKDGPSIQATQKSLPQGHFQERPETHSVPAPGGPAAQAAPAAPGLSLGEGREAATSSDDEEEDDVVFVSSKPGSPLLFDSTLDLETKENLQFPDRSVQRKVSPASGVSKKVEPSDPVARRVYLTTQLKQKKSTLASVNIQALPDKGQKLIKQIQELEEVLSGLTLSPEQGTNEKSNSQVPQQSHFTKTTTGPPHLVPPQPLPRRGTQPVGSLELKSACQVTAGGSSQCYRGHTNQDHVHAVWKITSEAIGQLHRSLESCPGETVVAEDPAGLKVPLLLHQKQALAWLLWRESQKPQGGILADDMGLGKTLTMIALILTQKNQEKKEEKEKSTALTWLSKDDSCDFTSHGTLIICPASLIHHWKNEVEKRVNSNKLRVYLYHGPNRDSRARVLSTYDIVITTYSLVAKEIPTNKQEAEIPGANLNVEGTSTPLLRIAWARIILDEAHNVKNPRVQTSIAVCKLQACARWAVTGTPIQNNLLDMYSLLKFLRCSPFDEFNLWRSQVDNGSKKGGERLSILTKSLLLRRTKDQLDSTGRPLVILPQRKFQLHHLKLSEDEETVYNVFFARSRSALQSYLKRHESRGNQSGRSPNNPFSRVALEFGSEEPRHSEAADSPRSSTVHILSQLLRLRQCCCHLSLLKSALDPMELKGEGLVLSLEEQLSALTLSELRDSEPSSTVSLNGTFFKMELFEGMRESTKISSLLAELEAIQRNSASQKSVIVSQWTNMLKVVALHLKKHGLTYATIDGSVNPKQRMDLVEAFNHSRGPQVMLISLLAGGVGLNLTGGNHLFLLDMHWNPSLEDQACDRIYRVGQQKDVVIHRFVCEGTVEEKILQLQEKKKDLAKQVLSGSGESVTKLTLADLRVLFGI
# UniProt Q9H3M7: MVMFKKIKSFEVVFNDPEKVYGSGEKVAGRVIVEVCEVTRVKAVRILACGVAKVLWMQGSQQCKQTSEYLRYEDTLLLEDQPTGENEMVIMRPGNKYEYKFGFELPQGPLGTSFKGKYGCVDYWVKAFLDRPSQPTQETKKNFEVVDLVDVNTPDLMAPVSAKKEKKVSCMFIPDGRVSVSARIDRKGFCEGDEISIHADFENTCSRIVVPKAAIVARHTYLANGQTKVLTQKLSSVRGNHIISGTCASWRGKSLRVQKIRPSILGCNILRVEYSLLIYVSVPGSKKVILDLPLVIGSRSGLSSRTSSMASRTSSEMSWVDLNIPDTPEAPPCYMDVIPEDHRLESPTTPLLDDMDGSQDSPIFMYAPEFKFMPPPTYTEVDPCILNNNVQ
# UniProt P43897: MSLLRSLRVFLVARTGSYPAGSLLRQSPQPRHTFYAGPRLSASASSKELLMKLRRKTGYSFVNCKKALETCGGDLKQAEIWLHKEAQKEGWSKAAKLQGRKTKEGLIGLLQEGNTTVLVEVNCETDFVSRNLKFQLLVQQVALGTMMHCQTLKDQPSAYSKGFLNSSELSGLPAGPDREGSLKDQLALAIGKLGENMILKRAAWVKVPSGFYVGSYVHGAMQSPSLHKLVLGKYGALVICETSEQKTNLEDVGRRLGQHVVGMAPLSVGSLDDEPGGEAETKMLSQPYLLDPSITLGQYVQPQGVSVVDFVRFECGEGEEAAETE
# UniProt Q9BRA2: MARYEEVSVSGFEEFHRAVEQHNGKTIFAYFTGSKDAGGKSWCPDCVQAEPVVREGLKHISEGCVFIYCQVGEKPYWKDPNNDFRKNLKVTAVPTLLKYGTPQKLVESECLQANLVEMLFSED
# Some of the results follow.
# Compound: Cc1cc(ccc1-c1ccccc1)C(=O)N1CCCN(CC1)C(=O)CCl [compound 10]
# Assay: probe-labelled cysteine peptide fold change vs DMSO (competition) (log2 fold change); higher = less target engagement (more negative = stronger competition)
# Conditions: 50 µM; THP-1; incubation time: 4 h
# 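Note: competitive profiling in live THP-1 cells: cysteine peptides tagged with an iodoacetamide desthiobiotin (IA-DTB) probe, intensity after compound treatment relative to DMSO-treated cells.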
row,Target,probe-labelled cysteine peptide fold change
1,TUFM_P49411_222_ELLTEFGYKGEETPVIVGSALCALEGRDPELGLK (UniProt P49411),0.0662
2,TTLL12_Q14166_528_QVHCEEFIPEFEK (UniProt Q14166),-0.0645
3,TRUB1_Q8WWH5_269_ELSSCANVLELTR (UniProt Q8WWH5),-0.134
4,TUBB6_Q9BUF5_127+129_ECEHCDCLQGFQLTHSLGGGTGSGMGTLLISK (UniProt Q9BUF5),-0.437
5,TUT4_Q5TAX3_458_VPVVVCR (UniProt Q5TAX3),0.153
6,TRRAP_Q9Y4A5_2876_EALVQVEVSCPK (UniProt Q9Y4A5),0.215
7,TXLNG_Q9NUQ3_101_NLVSPAYCTQESR (UniProt Q9NUQ3),-0.642
8,TRPM7_Q96QT4_53_QHACFTASLAMK (UniProt Q96QT4),-0.686
9,TRRAP_Q9Y4A5_1868_LMTFAWPCLLSK (UniProt Q9Y4A5),0.0883
10,TUBB6_Q9BUF5_129_ECEHCDCLQGFQLTHSLGGGTGSGMGTLLISK (UniProt Q9BUF5),-0.084
11,TTF2_Q9UNY4_1118_FVCEGTVEEK (UniProt Q9UNY4),-0.109
12,TXNIP_Q9H3M7_49_ILACGVAK (UniProt Q9H3M7),-0.747
13,TTC37_Q6PGP7_600_DFNCWESLGEAYLSR (UniProt Q6PGP7),0.156
14,TTC27_Q6P3X3_514_KETPSLYCLLGDVLGDHSCYDK (UniProt Q6P3X3),-0.359
15,TSFM_P43897_315_FECGEGEEAAETE (UniProt P43897),0.106
16,TRMT2A_Q8IZ69_580_AVAVDLFPQTPHCEMLILFER (UniProt Q8IZ69),-0.0925
17,TTC28_Q96AY4_274_TLGDQTGECR (UniProt Q96AY4),-0.18
18,TUBGCP2_Q9BSJ2_733_SASNIDDVLGHHTGFLDTCLK (UniProt Q9BSJ2),-0.347
19,TTC7A_Q9ULT0_77_LLLAEALLEQCLK (UniProt Q9ULT0),0.125

row,Target,probe-labelled cysteine peptide fold change
1,TSC2_P49815_791_EMVYCLEQGLIHR (UniProt P49815),-0.0121
2,TRRAP_Q9Y4A5_2513_STPIGTSCQGAMLPSITNVINLADSHDR (UniProt Q9Y4A5),0.295
3,TSPYL5_Q86VY4_79_LGEEAACR (UniProt Q86VY4),-0.0802
4,TST_Q16762_64_HVPGASFFDIEECR (UniProt Q16762),0.000964
5,TXNDC17_Q9BRA2_46_SWCPDCVQAEPVVR (UniProt Q9BRA2),-0.228
6,TSTA3_Q13630_112_VVSCLSTCIFPDK (UniProt Q13630),-0.367
7,TRPM2_O94759_693_AIGVFTECYR (UniProt O94759),0.144
8,TTF2_Q9UNY4_37_ADTCSFVR (UniProt Q9UNY4),-0.217
9,TSFM_P43897_64_TGYSFVNCK (UniProt P43897),-0.153
10,TTC21B_Q7Z4L5_72_QDVSLCSLLALIYAHK (UniProt Q7Z4L5),0.332
11,TSSC4_Q9Y5U2_99_DIFDCLEGAAR (UniProt Q9Y5U2),-0.311
12,TSFM_P43897_71_ALETCGGDLK (UniProt P43897),-0.0953
13,TTC14_Q96N46_371_AIEDFELALENCPTHR (UniProt Q96N46),0.0442
14,TTF2_Q9UNY4_522_SACQVTAGGSSQCYR (UniProt Q9UNY4),-0.629
15,TTC39C_Q8N584_463_ALPNCSFPNLQR (UniProt Q8N584),0.209
16,TUBGCP4_Q9UGJ1_151_IHGCQILETVYK (UniProt Q9UGJ1),-0.018
17,TTF2_Q9UNY4_648_DDSCDFTSHGTLIICPASLIHHWK (UniProt Q9UNY4),0.108
18,TTK_P33981_229_NNSCDSR (UniProt P33981),0.842
19,TSEN54_Q7Z6J9_277_EGVGCSWESGR (UniProt Q7Z6J9),-0.558
